# Data published in PMC4048286.
# Protein sequences, listed by entry. Tags and fused reporters are not part of them. Lines headed by an entry give the natural chain unless they say otherwise; changes in a name come on top.
# UniProt D4GZY6: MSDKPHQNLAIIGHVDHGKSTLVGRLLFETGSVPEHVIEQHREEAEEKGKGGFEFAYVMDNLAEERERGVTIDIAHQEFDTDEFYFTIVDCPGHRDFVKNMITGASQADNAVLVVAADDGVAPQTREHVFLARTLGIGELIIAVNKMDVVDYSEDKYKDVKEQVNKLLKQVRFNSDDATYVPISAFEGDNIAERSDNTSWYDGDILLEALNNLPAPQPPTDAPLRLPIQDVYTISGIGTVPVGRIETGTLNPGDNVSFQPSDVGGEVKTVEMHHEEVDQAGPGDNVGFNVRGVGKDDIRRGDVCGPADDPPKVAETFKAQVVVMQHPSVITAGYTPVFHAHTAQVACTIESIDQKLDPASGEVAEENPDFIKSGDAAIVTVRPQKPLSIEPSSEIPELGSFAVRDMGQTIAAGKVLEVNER
# T1: NcsA with a C-terminal StrepII-tag (Hfx. volcanii HVO_0580, Tuc1/Ncs6 homolog) (Haloferax volcanii) (UniProt D4GSH6)
# T1 sequence: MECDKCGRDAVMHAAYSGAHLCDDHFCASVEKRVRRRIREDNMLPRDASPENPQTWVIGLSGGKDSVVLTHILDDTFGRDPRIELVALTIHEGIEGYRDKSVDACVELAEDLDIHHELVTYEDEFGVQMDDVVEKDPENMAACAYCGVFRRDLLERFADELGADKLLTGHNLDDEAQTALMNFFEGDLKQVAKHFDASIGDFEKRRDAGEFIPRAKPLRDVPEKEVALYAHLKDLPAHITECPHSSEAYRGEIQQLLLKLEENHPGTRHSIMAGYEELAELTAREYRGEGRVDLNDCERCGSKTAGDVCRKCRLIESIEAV
# Target: T1, NcsA with a C-terminal StrepII-tag (Hfx. volcanii HVO_0580, Tuc1/Ncs6 homolog) (Haloferax volcanii)
# Experiment: affinity purification with mass spectrometry; NcsA-StrepII purified by Strep-Tactin chromatography from ΔncsA strains (with and without Flag-SAMP1/2), compared to empty vector control; trypsin digest, LC-MS/MS (LTQ Orbitrap)
row,Molecule,binding
1,"Proteasome-activating nucleotidase A/1 (PAN-A/1) (protein, UniProt D4GUJ7 1-406) MMTDTVDDVDLPYDKDSASQQEKITALQERLEVLETQNEEMRDKLLDTNAENNKYQQKLERLTHENKKLKQSPLFVATVQEITDEGVIIKQHGNNQEALTEVTDEMREELEPDARVAVNNSLSIVKRLDKETDVRARVMQVEHSPDVTYEDIGGLEEQMQEVRETVEMPLDRPEMFAEVGIDPPSGVLLYGPPGTGKTMLAKAVANQTNASFIKMAGSELVHKFIGEGAKLVRDLFEVARENEPAVIFIDEIDAIASKRTDSKTSGDAEVQRTMMQLLAEMDGFDERGNIRIIAATNRFDMLDPAILRPGRFDRLIEVPKPNEDGREIIFQIHTRKMNVSDDVDFVELAEMADNASGADIKAVCTEAGMFAIRDDRTEIFMQDFVDAWEKIQQEASDETEVSRAFA",binds
2,"N-terminal Flag-tagged SAMP2 (small archaeal modifier protein 2) (protein, UniProt D4GZE7 1-66) MNVTVEVVGEETSEVAVDDDGTYADLVRAVDLSPHEVTVLVDGRPVPEDQSVEVDRVKVLRLIKGG",binds

# The next lines start with the values.
row,binding,Molecule
1,binds,Translation elongation factor aEF-1α (from UniProt D4GZY6)
2,binds,"UbaA (ubiquitin-activating E1 enzyme homolog of archaea) (enzyme, UniProt D4GSF3 1-270) MTLSLDATQLDRYSRHIIMDEVGPEGQGRLLSSRVVVVGAGGLGAPAIQYLAAVGVGELVVVDDDVVERSNLQRQVVHCDDDVGTPKAESAAAFVRGLNPDVSVEPVEARVDKSNVHEVVAGSDVVVDASDNFPTRYLLNDVCRFEGIPLVHGAIYKFEGQATTLVPDGPCYRCLFPEAPEPGTVPDCATTGVLGVLPGTVGCIQATEAMKLLLDEGEALDGRLLFYDAMDMTFETVPYRTNPDCPVCGEGGVDSIEDIDYVESCAISLD"

# These are yes or no findings as the source states them, for the method shown. In cells and extracts the contact can be indirect. Here binding means that the protein was enriched with, or labelled near, the bait; the list need not be complete. Sequences can lack the tags named with a protein.
